{"sequences": {"note": "Chains of the proteins cited; added tags and fusions are not shown. Lines headed by an entry give the natural chain unless they say otherwise; changes in a name come on top.", "UniProt Q9UJU2": "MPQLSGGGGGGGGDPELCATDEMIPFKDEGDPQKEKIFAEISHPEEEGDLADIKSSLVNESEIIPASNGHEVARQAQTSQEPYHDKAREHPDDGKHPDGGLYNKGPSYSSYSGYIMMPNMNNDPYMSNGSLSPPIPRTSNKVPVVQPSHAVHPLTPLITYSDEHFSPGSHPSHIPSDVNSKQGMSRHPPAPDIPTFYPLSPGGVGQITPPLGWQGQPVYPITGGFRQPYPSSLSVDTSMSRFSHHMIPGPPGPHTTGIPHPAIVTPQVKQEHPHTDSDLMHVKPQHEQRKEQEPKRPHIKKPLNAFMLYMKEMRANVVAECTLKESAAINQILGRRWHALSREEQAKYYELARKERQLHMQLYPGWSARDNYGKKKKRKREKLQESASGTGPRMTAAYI", "UniProt Q9UNE7": "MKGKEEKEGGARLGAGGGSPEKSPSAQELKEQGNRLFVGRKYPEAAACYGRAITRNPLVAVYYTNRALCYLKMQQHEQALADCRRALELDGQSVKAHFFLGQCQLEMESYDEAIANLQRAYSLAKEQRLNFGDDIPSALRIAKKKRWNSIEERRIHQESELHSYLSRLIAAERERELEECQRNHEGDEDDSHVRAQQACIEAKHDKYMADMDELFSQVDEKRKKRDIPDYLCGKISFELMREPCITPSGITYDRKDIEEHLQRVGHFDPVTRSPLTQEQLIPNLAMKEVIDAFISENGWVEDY", "UniProt P35222": "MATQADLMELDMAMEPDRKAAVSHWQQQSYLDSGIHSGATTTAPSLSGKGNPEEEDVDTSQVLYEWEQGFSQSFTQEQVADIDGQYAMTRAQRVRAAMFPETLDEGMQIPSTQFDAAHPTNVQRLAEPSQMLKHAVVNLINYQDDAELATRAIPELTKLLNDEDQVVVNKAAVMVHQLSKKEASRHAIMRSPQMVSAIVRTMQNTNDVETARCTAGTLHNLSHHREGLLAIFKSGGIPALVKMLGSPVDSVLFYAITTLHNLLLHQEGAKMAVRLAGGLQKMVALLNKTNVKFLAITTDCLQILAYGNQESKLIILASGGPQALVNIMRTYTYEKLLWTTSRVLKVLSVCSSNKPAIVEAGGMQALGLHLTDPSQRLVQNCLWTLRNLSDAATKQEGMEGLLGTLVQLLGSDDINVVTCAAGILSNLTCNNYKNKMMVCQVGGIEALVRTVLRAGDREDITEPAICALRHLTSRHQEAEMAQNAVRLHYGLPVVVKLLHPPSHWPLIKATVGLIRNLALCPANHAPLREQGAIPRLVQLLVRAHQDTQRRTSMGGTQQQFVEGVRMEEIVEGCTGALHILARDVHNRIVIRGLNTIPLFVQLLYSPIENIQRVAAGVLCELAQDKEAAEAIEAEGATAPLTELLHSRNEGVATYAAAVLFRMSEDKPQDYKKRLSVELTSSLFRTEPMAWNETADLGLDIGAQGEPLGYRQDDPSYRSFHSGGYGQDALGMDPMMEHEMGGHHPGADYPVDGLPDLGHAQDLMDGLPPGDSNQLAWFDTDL"}, "source": "paper PMC7801388", "assay_in_all_cases": "co-IP; HEK293T cells co-transfected with Flag- and HA-tagged plasmids; whole-cell lysates in low-salt lysis buffer (50 mM Hepes pH 7.5, 150 mM NaCl, 1% Triton X-100) incubated with anti-Flag agarose overnight at 4 °C, blotted with anti-HA; in Fig. 5 also with Myc-CHIP or Myc-CHIP T246M, CHIP siRNA, Wnt3a (40 ng/ml, 1 h)", "key": {"[1]": {"molecular_target": "Flag-LEF1 (lymphoid enhancer factor) (human (A549 cDNA)) (UniProt Q9UJU2)"}, "[2]": {"molecular_target": "Flag-CHIP (human (A549 cDNA)) (UniProt Q9UNE7)"}, "[3]": {"molecular_target": "Flag-β-catenin (human (A549 cDNA)) (UniProt P35222)"}, "[4]": {"molecular_target": "Flag-CHIP deletion mutant without the TPR domain (human (A549 cDNA))"}}, "note": "No constants are given. Whether binding was seen depends on the method and setting. In cells and extracts the contact can be indirect. For some of these results: Binding can be weak; no strength is given. For some of these results: Where a sequence is shown, tags or fusion partners need not be part of it."}
{"molecule": "HA-CHIP (carboxyl terminus of Hsc70-interacting protein) (from UniProt Q9UNE7 1-303) (enzyme)", "values": [{"measurement": "binding", "setting": "[1]", "value": "binds"}]}
{"molecule": "HA-LEF1 (from UniProt Q9UJU2-6)", "values": [{"measurement": "binding", "setting": "[2]", "value": "binds"}, {"measurement": "binding", "setting": "[3]", "value": "binds"}]}
{"molecule": "HA-Arc (protein, UniProt Q7LC44 1-396) MELDHRTSGGLHAYPGPRGGQVAKPNVILQIGKCRAEMLEHVRRTHRHLLAEVSKQVERELKGLHRSVGKLESNLDGYVPTSDSQRWKKSIKACLCRCQETIANLERWVKREMHVWREVFYRLERWADRLESTGGKYPVGSESARHTVSVGVGGPESYCHEADGYDYTVSPYAITPPPAAGELPGQEPAEAQQYQPWVPGEDGQPSPGVDTQIFEDPREFLSHLEEYLRQVGGSEEYWLSQIQNHMNGPAKKWWEFKQGSVKNWVEFKKEFLQYSEGTLSREAIQRELDLPQKQGEPLDQFLWRKRDLYQTLYVDADEEEIIQYVVGTLQPKLKRFLRHPLPKTLEQLIQRGMEVQDDLEQAAEPAGPHLPVEDEAETLTPAPNSESVASDRTQPE", "values": [{"measurement": "binding", "setting": "[4]", "value": "no binding"}]}
